According to publication PMC7817834:

Target: T1, KIAA1199 (human (endogenous in RA FLS)) (UniProt Q8WUJ3)
T1 sequence: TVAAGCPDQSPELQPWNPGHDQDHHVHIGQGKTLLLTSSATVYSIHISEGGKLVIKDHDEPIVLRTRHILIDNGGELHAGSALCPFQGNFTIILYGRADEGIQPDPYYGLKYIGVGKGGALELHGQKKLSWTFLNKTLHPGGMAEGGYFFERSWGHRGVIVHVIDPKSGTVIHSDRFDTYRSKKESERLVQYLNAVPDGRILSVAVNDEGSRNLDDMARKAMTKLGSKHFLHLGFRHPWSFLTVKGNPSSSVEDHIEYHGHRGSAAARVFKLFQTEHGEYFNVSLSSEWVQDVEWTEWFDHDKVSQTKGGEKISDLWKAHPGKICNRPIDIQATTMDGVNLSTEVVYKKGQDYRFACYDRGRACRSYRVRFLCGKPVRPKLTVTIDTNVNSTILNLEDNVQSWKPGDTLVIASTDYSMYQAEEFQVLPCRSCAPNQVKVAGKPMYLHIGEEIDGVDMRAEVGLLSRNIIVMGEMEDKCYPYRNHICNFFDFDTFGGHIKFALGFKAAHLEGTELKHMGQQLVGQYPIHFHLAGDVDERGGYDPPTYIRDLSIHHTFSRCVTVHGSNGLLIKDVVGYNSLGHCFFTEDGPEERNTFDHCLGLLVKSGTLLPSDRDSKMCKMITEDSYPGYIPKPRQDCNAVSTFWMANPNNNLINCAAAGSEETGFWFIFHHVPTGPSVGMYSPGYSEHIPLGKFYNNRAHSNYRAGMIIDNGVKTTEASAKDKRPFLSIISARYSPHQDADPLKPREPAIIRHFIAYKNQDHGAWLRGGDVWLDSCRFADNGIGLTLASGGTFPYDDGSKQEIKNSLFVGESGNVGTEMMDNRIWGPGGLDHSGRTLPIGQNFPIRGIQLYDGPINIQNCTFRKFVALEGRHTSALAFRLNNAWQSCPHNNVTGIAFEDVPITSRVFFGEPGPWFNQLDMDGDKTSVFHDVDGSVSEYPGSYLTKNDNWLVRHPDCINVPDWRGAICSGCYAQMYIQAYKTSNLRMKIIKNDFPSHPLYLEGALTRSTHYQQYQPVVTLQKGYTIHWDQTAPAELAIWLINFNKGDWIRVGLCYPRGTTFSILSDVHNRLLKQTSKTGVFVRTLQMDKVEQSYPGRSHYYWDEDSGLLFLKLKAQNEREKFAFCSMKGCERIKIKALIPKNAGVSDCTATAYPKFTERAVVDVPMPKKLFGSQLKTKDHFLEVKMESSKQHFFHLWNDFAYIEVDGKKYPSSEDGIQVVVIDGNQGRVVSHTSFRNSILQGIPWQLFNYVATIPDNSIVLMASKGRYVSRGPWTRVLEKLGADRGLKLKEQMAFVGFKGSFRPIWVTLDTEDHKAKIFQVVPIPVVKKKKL
Assay: affinity purification with mass spectrometry; RA FLS membrane protein extracts incubated overnight with anti-KIAA1199 mAb, Protein A/G magnetic agarose beads; SDS-PAGE, Nano-LC-MS/MS

binding: binds
B1: ANXA1 (protein, UniProt P04083 1-346)
chain: MAMVSEFLKQAWFIENEEQEYVQTVKSSKGGPGSAVSPYPTFNPSSDVAALHKAIMVKGVDEATIIDILTKRNNAQRQQIKAAYLQETGKPLDETLKKALTGHLEEVVLALLKTPAQFDADELRAAMKGLGTDEDTLIEILASRTNKEIRDINRVYREELKRDLAKDITSDTSGDFRNALLSLAKGDRSEDFGVNEDLADSDARALYEAGERRKGTDVNVFNTILTTRSYPQLRRVFQKYTKYSKHDMNKVLDLELKGDIEKCLTAIVKCATSKPAFFAEKLHQAMKGVGTRHKALIRIMVSRSEIDMNDIKAFYQKMYGISLCQAILDETKGDYEKILVALCGGN

These are yes or no findings as the source states them, for the method shown. In cells and extracts the contact can be indirect. Here binding means that the protein was enriched with, or labelled near, the bait; the list need not be complete.
